Screen size: about 210,000 compounds; about 5,900 (2.8%) were called active. Inconclusive results (about 5%) are left out. Calls come from the whole dose curve; as a rule, active = well fitted activation curve with a large enough effect; inconclusive = small, poorly fitted or top-dose-only effect; inactive = no such curve, though single readings can be large or run the other way. The list shows a part of the results, in another mix than the full data. Where no call is shown, the source filed none.
experiment: qHTS Assay for Enhancers of SMN2 Splice Variant Expression; conditions: HEK293 SMN2-luciferase splicing reporter, luminescence, 30-36 h; activity change, positive = activation: at 46.1 µM (top of the series) unless noted; note: nearly all actives have a fitted effect of over 55% in size; for activity change, positive = activation: % of control where 0% means no effect
Method in brief: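 HEK293 cells carry an SMN2 […]–luciferase reporter in which exon 7 inclusion puts luciferase in frame. Cells were plated 10-12 h before compound addition, then incubated 30-36 h at 37C. ONE-Glo luminescence was read; sodium butyrate at 4.5 mM final served as control.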
Potency is the fitted concentration of half-maximal effect.

| Structure (SMILES) | activity change, positive = activation | Potency |
| --- | --- | --- |
| Nc1ccc(SCCN2C(=O)c3ccccc3C2=O)cc1 | 32% |  |
| Cc1cccc(N2CCN(C(=O)/C=C/c3cccs3)CC2)c1C | -42.8% |  |
| COc1ccc(-n2c(C)cc(C(=O)CN3C(=O)C(=O)N(Cc4ccccc4)C3=O)c2C)cc1 | -55.7% |  |
| O=C(Nc1cccnc1Cl)c1noc2c1CCc1ccccc1-2 | 102% |  |
| COc1cccc(-c2cc(C(=O)NCCCn3ccnc3)no2)c1 | 40% |  |
| CC(C)CNc1cc(Cl)c(S(=O)(=O)NCC(C)C)cc1C(=O)O | 30.4% |  |
| CCOC(=O)N/N=C/c1c(C)nn(-c2ccccc2Cl)c1Cl |  | active: 12.6 µM |
| Cc1ccc(Cn2nc(C)c(NC(=O)c3noc4c3CCCCC4)c2C)cc1 | inactive: -32.6% |  |
| CC[n+]1c(/C=C2\Sc3ccccc3N2C)ccc2cccc(C)c21 | inactive: -86.5% |  |
| OC1CCCN(Cc2cccc3ccccc23)C1 (configuration not stated) | 36% |  |
| Cc1cc(/C=C2\SC(=Nc3ccc(F)cc3)NC2=O)c(C)n1-c1ccc(S(N)(=O)=O)cc1 | 11% |  |
| Nc1nonc1NC(=O)CSc1ncccc1C(=O)O | 35.9% |  |
| N#CC1=C(N)C2=C(N3CCCCC3)CCCC2C1(C#N)C#N (configuration not stated) | 43.9% |  |
| Cc1ccc(C)c(CN2C(=O)c3ccccc3S(=O)c3ccc(C(=O)N4CCCCC4)cc32)c1 (configuration not stated) | inactive: -30.6% |  |
| COc1ccc(CCN2C(=O)CC(N3CCN(c4ccccn4)CC3)C2=O)cc1OC (configuration not stated) | 51.8% |  |
| O=C(CSc1ccsc1[N+](=O)[O-])NCCc1ccccc1 | 20.6% |  |
| COc1ccccc1NC(=O)N1C2CCCC1CC(NC(=O)c1ccccc1)C2 (configuration not stated) | inactive: -32.6% |  |
| Cc1ccc(NC(=O)c2cc3c(s2)CCCC3)cc1S(=O)(=O)Nc1ccccc1Cl | inactive: -60.2% |  |
| O=C(/C=C/c1c(F)cccc1Cl)Nc1ccncc1 | inactive: -22.6% |  |
| CCc1ccc(O)c(N=Cc2ccccc2O)c1 | 44.5% |  |
| Cn1c(=O)n(Cc2ccccc2F)c(=O)c2c1nc1n2CCN1Cc1ccco1 | inactive: -48.1% |  |
| O=c1c2c3c(sc2n(Cc2ccc(F)cc2Cl)c(=O)n1-c1ccc(Cl)cc1)CCC3 | 31.4% |  |
| COc1ccccc1NC(=S)N(Cc1ccc(C)cc1)Cc1ccccn1 | -59.9% |  |
| Cc1ccc(CSc2oc(-c3cccs3)nc2S(=O)(=O)c2ccc(C)cc2)cc1 | 49.9% |  |
| COC(=O)c1ccc(COc2cc(O)c3c(c2)OC(C)(C)CC3=O)cc1 | inactive: -49.7% |  |
| Cc1c2oc3c(C)ccc(C(=O)NC4C(=O)NC(C(C)C)C(=O)N5CCCC5C(=O)N(C)CC(=O)N(C)C(C(C)C)C(=O)OC4C)c3nc-2c(C(=O)NC2C(=O)NC(C(C)C)C(=O)N3CCCC3C(=O)N(C)CC(=O)N(C)C(C(C)C)C(=O)OC2C)c(N)c1=O (configuration not stated) | inactive: -95.4% |  |

| Structure (SMILES) | activity change, positive = activation | Potency |
| --- | --- | --- |
| O=C(COC(=O)c1c2c(nc3ccccc13)CCCC2)Nc1ccc2c(c1)OCO2 | inactive: -52.2% |  |
| Cc1ccc(Nc2nc3ccccc3n3nnnc23)cc1 | 33.3% |  |
| Cc1cc(=O)[nH]c(SCC(=O)Nc2ccc(S(=O)(=O)N3CCCCC3)cc2)n1 | 43.4% |  |
| COC(=O)c1ccccc1NC(=O)NCc1cccnc1 | 24.9% |  |
| COc1ccc(-c2nnc(SCC(=O)c3[nH]c(C)c(C(C)=O)c3C)o2)cc1 | -58.5% |  |
| CCOc1ccc(N(C)S(=O)(=O)c2ccc3[nH]cc(C(=O)NCCOC)c(=O)c3c2)cc1 | -16.5% |  |
| Cc1c(-c2ccccc2)oc2c(C(=O)N3CCN(c4ccc([N+](=O)[O-])cc4)CC3)cccc2c1=O | inactive: -31.5% |  |
| O=C(COC(=O)c1ccccc1Br)Nc1ccccc1F | 32.9% |  |
| COc1cccc(N2CCN(c3ncnc4c3cnn4-c3ccc(C)cc3C)CC2)c1 | inactive: -90.2% |  |
| Cc1nc2ccccc2n1CC(=O)N/N=C\C=C\c1ccccc1 | -40.2% |  |
| CCOC(=O)COc1ccc(S(=O)(=O)N2CCN(C(=O)OCC)CC2)cc1 | 45.1% |  |
| CCOC(=O)C(CCCOc1ccccc1)C(=O)OCC | 29% |  |
| CCOC(=O)CCc1c(C)c(C#N)c2[nH]c3ccccc3n2c1=O | -36.8% |  |
| N#C/C(=C\c1ccco1)c1nc2ccccc2s1 |  | active: 11.2 µM |
| Nc1nc(-c2ccc(Cl)cc2)nn1C(=O)c1cccnc1 | 36.1% |  |
| Cc1ccc(NC(=S)NNC(=O)c2c(Cl)c(C)nn2C)cc1 | -34.5% |  |
| N#CC1CC(c2ccccc2)=NN1c1ccccc1[N+](=O)[O-] (configuration not stated) |  | active: 22.4 µM |
| c1ccc(OCc2nc3ccccc3[nH]2)cc1 |  | active: 12.6 µM |
| O=c1[nH]c(SCCOc2cccc3ccccc23)nc2ccccc12 | 230% |  |
| CCC(=O)NC(c1ccccc1OC)c1ccc2cccnc2c1O (configuration not stated) | inactive: -109% |  |
| Cc1ccc2nc(-c3ccccc3)cc(C(=O)NCCCn3ccnc3)c2c1 | -11.2% |  |
| CC(=O)NCCc1nc2cc(NC(=O)c3cccs3)ccc2n1C | -0.418% |  |
| CCOc1ccc(NC(=O)c2ccc(CC)s2)c([N+](=O)[O-])c1 | 29.9% |  |
| COc1ccc2c(c1)-c1nc(NC(=O)c3ccco3)sc1CC2 | 47% |  |
| Cc1[nH]n(-c2ccccc2)c(=O)c1C1(C(F)(F)F)C(=O)N(c2ccc(F)cc2)C2=C1C(=O)CC(C)(C)C2 (configuration not stated) | 49.2% |  |
| CCn1c(SCC(=O)NCc2ccco2)nnc1-c1cccs1 | 34.1% |  |

Already shown: entries from further up.

| Structure (SMILES) | activity change, positive = activation | Potency |
| --- | --- | --- |
| Cc1ccc(NC(=S)NNC(=O)c2c(Cl)c(C)nn2C)cc1 | -34.5% |  |
| N#CC1CC(c2ccccc2)=NN1c1ccccc1[N+](=O)[O-] (configuration not stated) |  | active: 22.4 µM |
| c1ccc(OCc2nc3ccccc3[nH]2)cc1 |  | active: 12.6 µM |
